Measured values from PMC9681780.
These are yes or no findings as the source states them, for the method shown. Binding seen in cells or lysates may run through a third protein. Some results given as binding are weak or reduced against the parent protein; the word gives no strength. Tags and fused reporters may be left off the sequences shown.

Target: T1, PRSS22 wild type with C-terminal Flag tag (pcDNA3.1-PRSS22) (human) (UniProt Q9GZN4)
T1 sequence: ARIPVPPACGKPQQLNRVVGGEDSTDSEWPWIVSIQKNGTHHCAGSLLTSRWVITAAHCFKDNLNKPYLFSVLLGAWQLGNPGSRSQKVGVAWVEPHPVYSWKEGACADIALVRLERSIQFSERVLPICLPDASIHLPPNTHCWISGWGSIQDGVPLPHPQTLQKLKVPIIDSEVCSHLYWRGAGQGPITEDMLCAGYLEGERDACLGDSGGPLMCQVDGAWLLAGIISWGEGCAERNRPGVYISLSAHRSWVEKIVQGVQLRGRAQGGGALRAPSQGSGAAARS
Experiment: co-IP; Co-IP from BC cells followed by Western blot (Fig. 4G); PRSS22-Flag precipitated with Flag Tag Immunomagnetic Beads

B1: ANXA1 (Annexin A1) (protein, UniProt P04083 1-346)
chain: MAMVSEFLKQAWFIENEEQEYVQTVKSSKGGPGSAVSPYPTFNPSSDVAALHKAIMVKGVDEATIIDILTKRNNAQRQQIKAAYLQETGKPLDETLKKALTGHLEEVVLALLKTPAQFDADELRAAMKGLGTDEDTLIEILASRTNKEIRDINRVYREELKRDLAKDITSDTSGDFRNALLSLAKGDRSEDFGVNEDLADSDARALYEAGERRKGTDVNVFNTILTTRSYPQLRRVFQKYTKYSKHDMNKVLDLELKGDIEKCLTAIVKCATSKPAFFAEKLHQAMKGVGTRHKALIRIMVSRSEIDMNDIKAFYQKMYGISLCQAILDETKGDYEKILVALCGGN
- binding: binds
